This passage reports binding results from publication PMC6056059.

The chains behind the UniProt entries cited, without tags or fusion partners.
UniProt Q8IUR7: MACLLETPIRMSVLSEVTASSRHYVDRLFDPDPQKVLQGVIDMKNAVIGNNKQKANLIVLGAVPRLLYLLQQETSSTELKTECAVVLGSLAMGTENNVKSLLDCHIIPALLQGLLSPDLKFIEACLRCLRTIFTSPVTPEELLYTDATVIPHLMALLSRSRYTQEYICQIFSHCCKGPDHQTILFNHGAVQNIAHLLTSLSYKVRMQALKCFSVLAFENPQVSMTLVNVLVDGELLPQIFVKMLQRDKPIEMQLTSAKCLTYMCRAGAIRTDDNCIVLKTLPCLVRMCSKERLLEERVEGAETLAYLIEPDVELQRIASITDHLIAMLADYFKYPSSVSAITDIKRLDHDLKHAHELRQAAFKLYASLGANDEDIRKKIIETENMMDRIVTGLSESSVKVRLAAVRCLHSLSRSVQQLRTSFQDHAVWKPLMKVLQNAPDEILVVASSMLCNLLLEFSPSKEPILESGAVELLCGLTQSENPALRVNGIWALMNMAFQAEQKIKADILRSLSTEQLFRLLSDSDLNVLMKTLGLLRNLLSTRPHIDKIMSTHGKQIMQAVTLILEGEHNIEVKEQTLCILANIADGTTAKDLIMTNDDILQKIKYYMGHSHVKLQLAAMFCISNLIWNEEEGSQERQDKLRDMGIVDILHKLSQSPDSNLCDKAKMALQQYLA
UniProt Q92600: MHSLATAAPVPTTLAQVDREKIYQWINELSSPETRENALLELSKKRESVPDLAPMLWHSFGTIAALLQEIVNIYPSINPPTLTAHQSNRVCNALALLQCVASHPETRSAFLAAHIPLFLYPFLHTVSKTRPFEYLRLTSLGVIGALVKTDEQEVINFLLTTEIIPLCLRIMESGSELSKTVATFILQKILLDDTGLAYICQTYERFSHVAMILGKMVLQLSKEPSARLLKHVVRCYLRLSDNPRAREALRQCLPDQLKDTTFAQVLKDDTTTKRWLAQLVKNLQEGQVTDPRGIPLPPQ
UniProt A5YKK6: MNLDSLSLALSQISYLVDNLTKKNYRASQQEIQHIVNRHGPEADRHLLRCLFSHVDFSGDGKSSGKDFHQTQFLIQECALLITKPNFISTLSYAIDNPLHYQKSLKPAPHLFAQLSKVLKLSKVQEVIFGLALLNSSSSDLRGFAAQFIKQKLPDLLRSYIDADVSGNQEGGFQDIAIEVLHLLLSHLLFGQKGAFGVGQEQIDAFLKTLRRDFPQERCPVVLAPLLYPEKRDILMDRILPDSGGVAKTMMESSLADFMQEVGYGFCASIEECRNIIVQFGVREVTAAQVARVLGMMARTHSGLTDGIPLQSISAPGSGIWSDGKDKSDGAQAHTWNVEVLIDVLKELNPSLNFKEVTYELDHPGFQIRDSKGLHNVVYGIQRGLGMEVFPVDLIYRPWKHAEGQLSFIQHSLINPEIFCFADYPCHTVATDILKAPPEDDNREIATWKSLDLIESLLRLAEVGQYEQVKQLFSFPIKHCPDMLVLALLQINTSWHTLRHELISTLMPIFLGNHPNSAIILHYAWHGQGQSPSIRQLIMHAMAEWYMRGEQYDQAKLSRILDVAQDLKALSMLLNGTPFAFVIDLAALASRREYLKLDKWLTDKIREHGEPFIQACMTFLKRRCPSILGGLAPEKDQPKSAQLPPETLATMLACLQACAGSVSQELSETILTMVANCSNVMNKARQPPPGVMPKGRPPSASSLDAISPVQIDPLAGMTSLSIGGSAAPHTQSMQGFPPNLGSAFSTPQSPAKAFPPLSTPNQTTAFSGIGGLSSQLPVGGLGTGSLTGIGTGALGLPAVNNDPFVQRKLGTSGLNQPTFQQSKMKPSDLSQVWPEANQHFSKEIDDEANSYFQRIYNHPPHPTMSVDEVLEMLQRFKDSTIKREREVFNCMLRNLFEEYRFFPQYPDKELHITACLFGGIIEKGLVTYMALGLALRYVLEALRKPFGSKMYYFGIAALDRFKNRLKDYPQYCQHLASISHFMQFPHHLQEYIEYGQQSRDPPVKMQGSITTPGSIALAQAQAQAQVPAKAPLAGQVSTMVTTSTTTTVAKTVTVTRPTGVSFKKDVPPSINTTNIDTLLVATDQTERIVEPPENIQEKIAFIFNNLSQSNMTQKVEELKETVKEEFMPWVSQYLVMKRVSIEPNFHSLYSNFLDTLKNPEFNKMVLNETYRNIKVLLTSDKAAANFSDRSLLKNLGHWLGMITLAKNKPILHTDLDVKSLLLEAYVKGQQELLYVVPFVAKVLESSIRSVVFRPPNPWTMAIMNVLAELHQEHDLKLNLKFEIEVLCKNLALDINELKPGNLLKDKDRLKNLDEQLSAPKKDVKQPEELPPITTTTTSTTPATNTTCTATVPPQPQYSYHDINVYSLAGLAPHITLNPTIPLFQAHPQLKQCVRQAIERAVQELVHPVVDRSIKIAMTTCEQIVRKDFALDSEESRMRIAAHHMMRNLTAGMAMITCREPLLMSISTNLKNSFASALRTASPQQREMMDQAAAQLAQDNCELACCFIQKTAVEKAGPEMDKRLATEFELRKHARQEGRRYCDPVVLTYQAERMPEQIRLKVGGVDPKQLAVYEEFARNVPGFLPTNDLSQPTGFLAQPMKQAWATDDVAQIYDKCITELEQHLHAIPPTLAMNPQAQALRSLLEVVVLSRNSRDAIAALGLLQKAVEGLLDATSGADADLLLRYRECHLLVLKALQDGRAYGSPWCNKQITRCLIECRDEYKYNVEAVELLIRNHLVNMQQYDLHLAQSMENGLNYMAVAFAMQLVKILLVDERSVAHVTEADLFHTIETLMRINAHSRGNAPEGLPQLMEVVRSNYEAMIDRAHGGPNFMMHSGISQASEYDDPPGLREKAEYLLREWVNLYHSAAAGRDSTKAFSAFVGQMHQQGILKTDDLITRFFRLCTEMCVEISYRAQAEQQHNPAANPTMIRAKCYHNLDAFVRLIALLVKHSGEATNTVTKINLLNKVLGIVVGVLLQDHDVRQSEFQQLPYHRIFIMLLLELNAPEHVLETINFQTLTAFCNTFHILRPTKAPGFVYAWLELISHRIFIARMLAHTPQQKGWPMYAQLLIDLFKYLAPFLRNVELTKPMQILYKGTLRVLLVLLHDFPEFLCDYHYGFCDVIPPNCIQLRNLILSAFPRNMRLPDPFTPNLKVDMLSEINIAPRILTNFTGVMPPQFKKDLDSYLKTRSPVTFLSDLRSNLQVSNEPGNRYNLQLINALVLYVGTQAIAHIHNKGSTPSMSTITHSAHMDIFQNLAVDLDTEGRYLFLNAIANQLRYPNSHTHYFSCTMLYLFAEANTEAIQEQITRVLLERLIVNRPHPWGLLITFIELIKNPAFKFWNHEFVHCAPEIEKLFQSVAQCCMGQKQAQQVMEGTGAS
UniProt P27708: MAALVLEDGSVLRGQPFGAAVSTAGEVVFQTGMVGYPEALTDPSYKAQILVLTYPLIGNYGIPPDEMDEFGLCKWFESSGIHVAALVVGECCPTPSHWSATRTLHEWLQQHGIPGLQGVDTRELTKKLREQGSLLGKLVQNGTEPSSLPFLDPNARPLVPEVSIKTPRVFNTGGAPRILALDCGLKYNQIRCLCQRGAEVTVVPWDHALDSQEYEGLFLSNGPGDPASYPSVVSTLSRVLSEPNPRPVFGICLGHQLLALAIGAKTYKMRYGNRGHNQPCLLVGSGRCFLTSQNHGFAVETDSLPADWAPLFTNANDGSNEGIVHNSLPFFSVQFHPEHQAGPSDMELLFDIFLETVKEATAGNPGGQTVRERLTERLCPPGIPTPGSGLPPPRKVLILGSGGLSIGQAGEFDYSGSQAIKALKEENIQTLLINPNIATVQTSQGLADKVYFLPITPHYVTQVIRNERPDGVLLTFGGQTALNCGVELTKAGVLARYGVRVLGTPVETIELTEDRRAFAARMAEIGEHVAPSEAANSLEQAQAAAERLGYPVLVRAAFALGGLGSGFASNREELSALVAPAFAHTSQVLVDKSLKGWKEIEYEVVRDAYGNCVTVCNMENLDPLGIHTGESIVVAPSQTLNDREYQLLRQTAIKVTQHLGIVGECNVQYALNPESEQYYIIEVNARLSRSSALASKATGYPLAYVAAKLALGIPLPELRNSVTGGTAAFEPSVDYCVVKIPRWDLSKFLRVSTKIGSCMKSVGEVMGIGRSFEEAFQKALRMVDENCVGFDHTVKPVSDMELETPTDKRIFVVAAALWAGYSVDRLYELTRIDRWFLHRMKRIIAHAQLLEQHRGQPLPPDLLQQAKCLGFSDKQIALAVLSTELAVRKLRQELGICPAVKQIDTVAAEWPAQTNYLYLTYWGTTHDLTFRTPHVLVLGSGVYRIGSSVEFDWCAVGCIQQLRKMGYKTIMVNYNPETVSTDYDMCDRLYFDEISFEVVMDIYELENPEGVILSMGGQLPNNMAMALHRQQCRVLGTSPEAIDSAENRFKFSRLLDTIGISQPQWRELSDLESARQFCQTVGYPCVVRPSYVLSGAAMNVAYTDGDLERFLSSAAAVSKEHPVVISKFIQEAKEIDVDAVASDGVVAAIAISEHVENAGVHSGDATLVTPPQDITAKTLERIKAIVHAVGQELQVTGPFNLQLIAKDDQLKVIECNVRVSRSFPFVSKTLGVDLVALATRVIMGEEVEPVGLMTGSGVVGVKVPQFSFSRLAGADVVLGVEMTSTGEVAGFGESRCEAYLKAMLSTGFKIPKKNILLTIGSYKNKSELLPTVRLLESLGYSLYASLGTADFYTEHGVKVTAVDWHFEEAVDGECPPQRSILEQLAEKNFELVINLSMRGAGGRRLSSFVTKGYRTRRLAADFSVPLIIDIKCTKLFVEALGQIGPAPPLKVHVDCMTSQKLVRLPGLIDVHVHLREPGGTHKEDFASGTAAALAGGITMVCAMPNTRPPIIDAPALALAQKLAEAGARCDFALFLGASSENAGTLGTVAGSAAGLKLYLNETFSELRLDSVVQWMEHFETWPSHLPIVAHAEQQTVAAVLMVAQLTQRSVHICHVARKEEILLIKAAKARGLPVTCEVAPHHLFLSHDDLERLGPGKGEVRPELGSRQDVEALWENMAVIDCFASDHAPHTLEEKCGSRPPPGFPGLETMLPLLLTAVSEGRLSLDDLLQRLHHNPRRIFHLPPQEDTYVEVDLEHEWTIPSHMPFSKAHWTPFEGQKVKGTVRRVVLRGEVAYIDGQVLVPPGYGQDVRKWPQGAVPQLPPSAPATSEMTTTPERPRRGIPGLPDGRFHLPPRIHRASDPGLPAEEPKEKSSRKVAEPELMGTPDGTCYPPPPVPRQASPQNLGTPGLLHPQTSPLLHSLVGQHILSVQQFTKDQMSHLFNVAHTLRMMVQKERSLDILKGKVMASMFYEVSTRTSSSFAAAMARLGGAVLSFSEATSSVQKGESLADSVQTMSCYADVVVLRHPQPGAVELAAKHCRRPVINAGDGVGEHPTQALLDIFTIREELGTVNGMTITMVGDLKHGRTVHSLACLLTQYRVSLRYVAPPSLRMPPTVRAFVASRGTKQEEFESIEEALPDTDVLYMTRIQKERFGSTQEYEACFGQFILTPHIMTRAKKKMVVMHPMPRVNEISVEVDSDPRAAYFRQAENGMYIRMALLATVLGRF

Results are given in words; binding and its absence hold for the method and conditions named. In cells and extracts the contact can be indirect. A yes stands for co-enrichment or nearness to the bait. Other partners may have been found. For some assays here: No binding means not detected with the bait. Sequences can lack the tags named with a protein.

Assay [1] deals with T1, TAP-tagged MmBicc1-D913K915E916/AAA (Bicc1 MutD-SH) (mouse) (UniProt Q99MQ1).
T1 sequence: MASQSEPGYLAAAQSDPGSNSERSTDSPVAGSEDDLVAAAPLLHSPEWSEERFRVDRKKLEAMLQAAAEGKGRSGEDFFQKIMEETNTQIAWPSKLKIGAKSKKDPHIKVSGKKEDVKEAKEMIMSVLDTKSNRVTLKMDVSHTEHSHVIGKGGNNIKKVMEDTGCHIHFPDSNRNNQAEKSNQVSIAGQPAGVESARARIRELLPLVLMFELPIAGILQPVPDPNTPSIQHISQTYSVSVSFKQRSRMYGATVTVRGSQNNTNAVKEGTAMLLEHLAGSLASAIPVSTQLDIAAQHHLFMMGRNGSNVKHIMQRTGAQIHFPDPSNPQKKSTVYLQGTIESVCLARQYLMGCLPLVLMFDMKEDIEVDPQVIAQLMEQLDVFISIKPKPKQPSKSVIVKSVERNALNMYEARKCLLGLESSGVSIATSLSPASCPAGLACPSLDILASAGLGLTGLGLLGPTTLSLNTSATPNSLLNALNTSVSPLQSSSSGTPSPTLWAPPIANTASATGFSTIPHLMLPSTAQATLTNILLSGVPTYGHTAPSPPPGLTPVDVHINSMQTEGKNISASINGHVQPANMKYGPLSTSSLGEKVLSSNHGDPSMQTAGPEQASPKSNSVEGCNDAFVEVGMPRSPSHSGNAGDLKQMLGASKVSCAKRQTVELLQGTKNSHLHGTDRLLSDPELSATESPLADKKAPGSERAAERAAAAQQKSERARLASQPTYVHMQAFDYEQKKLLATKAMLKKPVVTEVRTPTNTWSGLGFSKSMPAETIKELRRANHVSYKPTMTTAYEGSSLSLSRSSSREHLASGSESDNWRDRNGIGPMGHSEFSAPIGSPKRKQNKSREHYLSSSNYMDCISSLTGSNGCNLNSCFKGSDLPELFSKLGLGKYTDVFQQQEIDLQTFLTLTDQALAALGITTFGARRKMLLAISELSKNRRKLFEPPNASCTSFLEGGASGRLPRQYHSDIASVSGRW
Briefly: affinity purification with mass spectrometry; tandem affinity purification of Bicc1 WT and Bicc1 MutD at lower salt concentrations (30 mM Tris.HCl pH 7.6, 150 mM NaCl, 1 mM MgCl2, 0.05% NP-40; Strep elution with desthiobiotin 2X containing 300 mM); LC-MS/MS.

The target of assay [2] is T2, tandem affinity-tagged Bicc1-StrepII-HA (Bicc1-SH) (mouse) (UniProt Q99MQ1).
T2 sequence: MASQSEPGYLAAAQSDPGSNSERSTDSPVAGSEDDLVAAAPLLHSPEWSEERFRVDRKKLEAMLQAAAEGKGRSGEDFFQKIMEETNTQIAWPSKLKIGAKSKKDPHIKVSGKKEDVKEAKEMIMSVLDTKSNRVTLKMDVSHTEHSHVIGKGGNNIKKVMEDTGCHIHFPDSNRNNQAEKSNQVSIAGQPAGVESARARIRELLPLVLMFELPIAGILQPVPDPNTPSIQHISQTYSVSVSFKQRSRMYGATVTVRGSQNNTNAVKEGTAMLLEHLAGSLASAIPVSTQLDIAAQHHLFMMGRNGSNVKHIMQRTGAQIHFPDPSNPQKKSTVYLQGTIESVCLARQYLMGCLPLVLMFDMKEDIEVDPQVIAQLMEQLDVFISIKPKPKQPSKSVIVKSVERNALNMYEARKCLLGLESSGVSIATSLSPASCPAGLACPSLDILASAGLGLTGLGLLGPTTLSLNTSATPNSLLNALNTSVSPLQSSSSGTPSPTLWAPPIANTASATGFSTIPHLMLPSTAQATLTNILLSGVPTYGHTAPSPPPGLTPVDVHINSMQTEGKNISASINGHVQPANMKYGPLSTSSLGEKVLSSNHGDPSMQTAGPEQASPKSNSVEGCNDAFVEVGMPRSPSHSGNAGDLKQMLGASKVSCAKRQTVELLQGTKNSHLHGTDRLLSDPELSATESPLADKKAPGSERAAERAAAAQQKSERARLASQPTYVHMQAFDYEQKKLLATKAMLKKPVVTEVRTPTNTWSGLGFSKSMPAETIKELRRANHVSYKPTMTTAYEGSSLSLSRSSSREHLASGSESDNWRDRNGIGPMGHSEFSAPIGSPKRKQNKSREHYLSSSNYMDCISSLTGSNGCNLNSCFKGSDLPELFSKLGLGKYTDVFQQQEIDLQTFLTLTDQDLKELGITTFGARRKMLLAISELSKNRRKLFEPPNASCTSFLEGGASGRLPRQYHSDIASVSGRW
Briefly: affinity purification with mass spectrometry; tandem affinity purification of Bicc1-SH from doxycycline-induced Flp-In T-REx HEK293 extracts (Strep-Tactin Sepharose, elution with desthiobiotin 3X containing 400 mM NaCl, then anti-HA agarose); uninduced cells as control; LC-MS/MS.

Assay [3] concerns the target T2, tandem affinity-tagged Bicc1-StrepII-HA (Bicc1-SH) (mouse). Briefly: affinity purification with mass spectrometry; tandem affinity purification of Bicc1 WT and Bicc1 MutD at lower salt concentrations (30 mM Tris.HCl pH 7.6, 150 mM NaCl, 1 mM MgCl2, 0.05% NP-40; Strep elution with desthiobiotin 2X containing 300 mM); LC-MS/MS.
Assay [4] concerns the target T3, tandem affinity-tagged Bicc1-StrepII-HA (Bicc1-SH) (mouse), Q99MQ1.
T3 chain: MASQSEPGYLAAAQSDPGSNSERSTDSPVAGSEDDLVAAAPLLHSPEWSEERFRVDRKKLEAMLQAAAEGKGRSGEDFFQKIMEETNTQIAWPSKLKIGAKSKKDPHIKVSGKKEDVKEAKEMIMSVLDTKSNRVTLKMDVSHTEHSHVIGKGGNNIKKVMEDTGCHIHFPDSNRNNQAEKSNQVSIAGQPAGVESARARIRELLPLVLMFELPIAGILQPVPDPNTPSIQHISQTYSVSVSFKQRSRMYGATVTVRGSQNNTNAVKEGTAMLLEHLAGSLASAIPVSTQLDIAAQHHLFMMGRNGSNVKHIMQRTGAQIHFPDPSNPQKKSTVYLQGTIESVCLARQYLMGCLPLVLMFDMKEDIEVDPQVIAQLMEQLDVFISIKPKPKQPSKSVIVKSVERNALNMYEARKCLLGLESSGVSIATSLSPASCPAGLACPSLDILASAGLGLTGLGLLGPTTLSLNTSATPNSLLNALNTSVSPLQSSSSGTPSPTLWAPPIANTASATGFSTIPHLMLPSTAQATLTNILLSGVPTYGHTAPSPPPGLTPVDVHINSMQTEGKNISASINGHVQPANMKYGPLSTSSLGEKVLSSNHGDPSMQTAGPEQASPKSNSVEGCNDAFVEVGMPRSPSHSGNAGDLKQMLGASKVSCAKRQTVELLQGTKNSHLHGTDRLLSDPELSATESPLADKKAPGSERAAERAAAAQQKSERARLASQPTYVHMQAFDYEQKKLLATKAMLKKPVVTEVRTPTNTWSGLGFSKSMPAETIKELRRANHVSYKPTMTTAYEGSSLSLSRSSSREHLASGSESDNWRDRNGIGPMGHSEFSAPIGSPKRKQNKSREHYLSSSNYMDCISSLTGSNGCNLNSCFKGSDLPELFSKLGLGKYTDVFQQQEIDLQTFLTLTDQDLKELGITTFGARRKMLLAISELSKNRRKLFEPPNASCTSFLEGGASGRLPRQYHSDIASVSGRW
The assay can be described thus: affinity purification with mass spectrometry; tandem affinity purification of Bicc1-SH from doxycycline-induced Flp-In T-REx HEK293 extracts (Strep-Tactin Sepharose, elution with desthiobiotin 3X containing 400 mM NaCl, then anti-HA agarose); uninduced cells as control; LC-MS/MS. The conditions noted are these: remark: other sources report otherwise.

For the molecule “Armadillo repeat containing 8 (ARMC8), endogenous in HEK293 cells (from UniProt Q8IUR7 1-673)”, the binding result in assay [1] is listed as “binds”. As to “CCR4-NOT deadenylase subunit NOT-9, endogenous in HEK293 cells (from UniProt Q92600 1-299)”, in assay [2], the binding result is “binds”. Still for that read-out and setting: the value for “CUL4-binding protein DDB1, endogenous in HEK293 cells (from UniProt Q16531 1-1140)” was “binds”.

With “NOT1 subunit of the CCR4-NOT complex (CNOT1), endogenous in HEK293 cells (from UniProt A5YKK6 1-2376)”, the binding result in assay [2] is “binds”. With “carbamoyl-phosphate synthetase 2, aspartate transcarbamylase, dihydroorotase (CAD), endogenous in HEK293 cells (from UniProt P27708 1-2225) (enzyme)”, the binding result in assay [1] and in assay [3] was “binds” throughout.

B1: ANKS6, endogenous in HEK293 cells, Q68DC2 1-871 (protein)
chain: MGEGGLPPAFQLLLRACDQGDTETARRLLEPGAAEPAERGAEPEAGAEPAGAEVAGPGAAAAGAVGAPVPVDCSDEAGNTALQFAAAGGHEPLVRFLLRRGASVNSRNHYGWSALMQAARFGHVSVAHLLLDHGADVNAQNRLGASVLTVASRGGHLGVVKLLLEAGAFVDHHHPSGEQLGLGGSRDEPLDITALMAAIQHGHEAVVRLLMEWGADPNHAARTVGWSPLMLAALTGRLGVAQQLVEKGANPDHLSVLEKTAFEVALDCKHRDLVDYLDPLTTVRPKTDEEKRRPDIFHALKMGNFQLVKEIADEDPSHVNLVNGDGATPLMLAAVTGQLALVQLLVERHADVDKQDSVHGWTALMQATYHGNKEIVKYLLNQGADVTLRAKNGYTAFDLVMLLNDPDTELVRLLASVCMQVNKDKGRPSHQPPLPHSKVRQPWSIPVLPDDKGGLKSWWNRMSNRFRKLKLMQTLPRGLSSNQPLPFSDEPEPALDSTMRAAPQDKTSRSALPDAAPVTKDNGPGSTRGEKEDTLLTTMLRNGAPLTRLPSDKLKAVIPPFLPPSSFELWSSDRSRTRHNGKADPMKTALPQRASRGHPVGGGGTDTTPVRPVKFPSLPRSPASSANSGNFNHSPHSSGGSSGVGVSRHGGELLNRSGGSIDNVLSQIAAQRKKAAGLLEQKPSHRSSPVGPAPGSSPSELPASPAGGSAPVGKKLETSKRPPSGTSTTSKSTSPTLTPSPSPKGHTAESSVSSSSSHRQSKSSGGSSSGTITDEDELTGILKKLSLEKYQPIFEEQEVDMEAFLTLTDGDLKELGIKTDGSRQQILAAISELNAGKGRERQILQETIHNFHSSFESSASNTRAPGNSPCA
As to B1, in assay [4], the binding entry is given as “no binding”.

B2: GID4 (formerly C17orf39), endogenous in HEK293 cells (protein, UniProt Q8IVV7 1-300)
chain: MCARGQVGRGTQLRTGRPCSQVPGSRWRPERLLRRQRAGGRPSRPHPARARPGLSLPATLLGSRAAAAVPLPLPPALAPGDPAMPVRTECPPPAGASAASAASLIPPPPINTQQPGVATSLLYSGSKFRGHQKSKGNSYDVEVVLQHVDTGNSYLCGYLKIKGLTEEYPTLTTFFEGEIISKKHPFLTRKWDADEDVDRKHWGKFLAFYQYAKSFNSDDFDYEELKNGDYVFMRWKEQFLVPDHTIKDISGASFAGFYYICFQKSAASIEGYYYHRSSEWYQSLNLTHVPEHSAPIYEFR
Take B2: the binding entry in assay [2] is given as “no binding”.
